The values below come from publication PMC9499397.

Amino acid sequences for entries named in this document (tags omitted).
UniProt Q7TNF0: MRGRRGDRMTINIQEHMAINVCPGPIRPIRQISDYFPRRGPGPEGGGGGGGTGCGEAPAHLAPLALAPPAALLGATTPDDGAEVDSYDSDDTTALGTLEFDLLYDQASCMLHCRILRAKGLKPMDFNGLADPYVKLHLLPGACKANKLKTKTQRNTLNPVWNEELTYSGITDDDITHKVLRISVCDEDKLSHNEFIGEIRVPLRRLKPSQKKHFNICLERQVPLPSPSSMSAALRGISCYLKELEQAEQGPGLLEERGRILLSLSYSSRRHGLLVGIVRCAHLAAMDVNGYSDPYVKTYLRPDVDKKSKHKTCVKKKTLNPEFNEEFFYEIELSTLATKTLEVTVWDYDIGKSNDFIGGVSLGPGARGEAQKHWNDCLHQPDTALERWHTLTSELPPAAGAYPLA
UniProt Q9Z1N9: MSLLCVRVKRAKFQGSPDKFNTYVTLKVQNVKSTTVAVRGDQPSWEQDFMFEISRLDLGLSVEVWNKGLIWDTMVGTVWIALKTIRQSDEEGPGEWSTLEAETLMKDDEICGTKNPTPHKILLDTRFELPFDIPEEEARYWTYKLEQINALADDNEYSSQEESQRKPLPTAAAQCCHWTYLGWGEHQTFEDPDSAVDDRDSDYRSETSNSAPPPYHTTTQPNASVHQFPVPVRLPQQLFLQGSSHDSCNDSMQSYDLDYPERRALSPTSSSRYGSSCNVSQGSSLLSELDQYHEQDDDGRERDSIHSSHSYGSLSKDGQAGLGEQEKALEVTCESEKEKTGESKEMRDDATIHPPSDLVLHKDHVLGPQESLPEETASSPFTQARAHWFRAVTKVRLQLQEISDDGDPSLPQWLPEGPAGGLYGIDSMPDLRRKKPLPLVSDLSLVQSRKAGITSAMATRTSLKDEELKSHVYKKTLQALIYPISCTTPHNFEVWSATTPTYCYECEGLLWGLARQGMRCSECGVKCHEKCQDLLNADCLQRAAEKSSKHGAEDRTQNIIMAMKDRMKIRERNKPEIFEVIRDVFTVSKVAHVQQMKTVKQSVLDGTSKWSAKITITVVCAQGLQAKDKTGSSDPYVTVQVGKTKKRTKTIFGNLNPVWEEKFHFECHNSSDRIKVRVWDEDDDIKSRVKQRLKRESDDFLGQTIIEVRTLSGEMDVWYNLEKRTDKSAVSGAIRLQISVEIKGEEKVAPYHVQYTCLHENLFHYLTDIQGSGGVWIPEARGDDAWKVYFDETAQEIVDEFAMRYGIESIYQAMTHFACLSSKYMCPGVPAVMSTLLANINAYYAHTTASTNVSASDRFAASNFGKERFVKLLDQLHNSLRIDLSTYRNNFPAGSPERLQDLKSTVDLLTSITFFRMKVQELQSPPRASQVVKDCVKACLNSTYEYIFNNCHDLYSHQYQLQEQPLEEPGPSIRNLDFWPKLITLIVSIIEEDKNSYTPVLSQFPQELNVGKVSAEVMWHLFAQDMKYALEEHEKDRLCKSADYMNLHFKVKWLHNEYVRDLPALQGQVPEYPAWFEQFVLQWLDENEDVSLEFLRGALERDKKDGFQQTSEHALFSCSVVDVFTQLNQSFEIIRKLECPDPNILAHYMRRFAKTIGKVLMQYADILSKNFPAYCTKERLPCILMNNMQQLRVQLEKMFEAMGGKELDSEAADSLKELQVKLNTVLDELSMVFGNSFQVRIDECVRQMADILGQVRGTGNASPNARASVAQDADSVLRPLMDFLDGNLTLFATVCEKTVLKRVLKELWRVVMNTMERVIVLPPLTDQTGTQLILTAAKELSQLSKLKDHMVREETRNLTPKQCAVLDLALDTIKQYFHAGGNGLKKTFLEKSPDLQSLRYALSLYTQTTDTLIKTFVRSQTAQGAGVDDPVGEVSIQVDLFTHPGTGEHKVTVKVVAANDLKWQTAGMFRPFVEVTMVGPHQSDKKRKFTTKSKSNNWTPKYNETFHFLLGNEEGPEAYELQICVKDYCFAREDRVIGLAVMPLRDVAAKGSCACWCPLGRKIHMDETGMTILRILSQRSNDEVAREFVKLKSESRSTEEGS

Results are given in words; binding and its absence hold for the method and conditions named. In cells and extracts the contact can be indirect. Some binding calls cover weakened binding; strength is not graded here.

The target of this assay is Double C2 domain alpha (DOC2A) (UniProt Q7TNF0). As to the kind of experiment: co-IP; co-immunoprecipitation (CO-IP), Figure 7K,L; sample, bait and conditions not described.

For “unc-13 homolog B (UNC13B) (from UniProt Q9Z1N9 1-1602)”, the binding entry is “binds”.
